Assay results reported in patent US10428114B2 (SICHUAN UNIVERSITY, priority 2015, dated 2019).

Assay: peptide made by a vendor
Conditions: whole synthesis, one disulfide bridge, sequence written open

## CCRGDK(NAA)GPDC (CCRGDKGPDC)
  purity (crude or final not stated): 85%
